Experimental data taken from the supplement of paper PMC10849652.
The other results are listed elsewhere or left out.

By UniProt entry, the sequences of proteins in these tests, tags left out. Where a name states a change or a piece, a line headed by the entry shows the natural chain unless it says otherwise.
UniProt P05387, whole entry, looked up: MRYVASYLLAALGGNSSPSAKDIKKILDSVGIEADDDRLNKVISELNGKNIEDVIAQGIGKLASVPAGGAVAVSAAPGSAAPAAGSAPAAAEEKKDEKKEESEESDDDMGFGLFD
UniProt P78345: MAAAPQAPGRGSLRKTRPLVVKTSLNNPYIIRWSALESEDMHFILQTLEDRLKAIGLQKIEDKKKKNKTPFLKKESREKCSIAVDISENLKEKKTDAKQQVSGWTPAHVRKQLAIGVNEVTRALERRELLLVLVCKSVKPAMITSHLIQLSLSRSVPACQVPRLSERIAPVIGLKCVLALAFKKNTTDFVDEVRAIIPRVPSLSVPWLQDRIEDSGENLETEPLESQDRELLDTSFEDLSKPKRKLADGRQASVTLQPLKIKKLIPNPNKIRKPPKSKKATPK
UniProt Q92901: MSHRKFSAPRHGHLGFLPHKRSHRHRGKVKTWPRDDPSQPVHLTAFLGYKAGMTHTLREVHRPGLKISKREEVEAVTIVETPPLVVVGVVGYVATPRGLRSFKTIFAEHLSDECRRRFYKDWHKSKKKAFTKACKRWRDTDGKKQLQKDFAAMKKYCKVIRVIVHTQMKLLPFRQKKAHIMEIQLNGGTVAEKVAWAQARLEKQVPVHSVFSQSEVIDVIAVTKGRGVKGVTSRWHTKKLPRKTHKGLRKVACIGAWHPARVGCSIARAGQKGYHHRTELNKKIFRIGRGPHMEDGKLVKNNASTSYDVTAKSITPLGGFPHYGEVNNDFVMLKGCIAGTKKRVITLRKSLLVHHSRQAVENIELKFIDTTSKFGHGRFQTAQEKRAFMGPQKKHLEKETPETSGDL
UniProt P13489: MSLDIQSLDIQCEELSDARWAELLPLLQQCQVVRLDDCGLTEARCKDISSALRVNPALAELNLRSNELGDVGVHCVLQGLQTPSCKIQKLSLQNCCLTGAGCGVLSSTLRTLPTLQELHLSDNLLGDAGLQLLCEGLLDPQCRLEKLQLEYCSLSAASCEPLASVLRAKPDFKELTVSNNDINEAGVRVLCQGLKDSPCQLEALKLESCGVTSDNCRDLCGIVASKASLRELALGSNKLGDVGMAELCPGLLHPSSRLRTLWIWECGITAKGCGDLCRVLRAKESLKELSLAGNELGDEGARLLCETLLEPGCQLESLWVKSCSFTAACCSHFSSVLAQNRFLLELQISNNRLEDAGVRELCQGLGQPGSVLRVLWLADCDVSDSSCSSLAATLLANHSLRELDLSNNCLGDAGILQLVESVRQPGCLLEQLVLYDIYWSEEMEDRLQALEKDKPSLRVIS
UniProt P27694, whole entry, looked up: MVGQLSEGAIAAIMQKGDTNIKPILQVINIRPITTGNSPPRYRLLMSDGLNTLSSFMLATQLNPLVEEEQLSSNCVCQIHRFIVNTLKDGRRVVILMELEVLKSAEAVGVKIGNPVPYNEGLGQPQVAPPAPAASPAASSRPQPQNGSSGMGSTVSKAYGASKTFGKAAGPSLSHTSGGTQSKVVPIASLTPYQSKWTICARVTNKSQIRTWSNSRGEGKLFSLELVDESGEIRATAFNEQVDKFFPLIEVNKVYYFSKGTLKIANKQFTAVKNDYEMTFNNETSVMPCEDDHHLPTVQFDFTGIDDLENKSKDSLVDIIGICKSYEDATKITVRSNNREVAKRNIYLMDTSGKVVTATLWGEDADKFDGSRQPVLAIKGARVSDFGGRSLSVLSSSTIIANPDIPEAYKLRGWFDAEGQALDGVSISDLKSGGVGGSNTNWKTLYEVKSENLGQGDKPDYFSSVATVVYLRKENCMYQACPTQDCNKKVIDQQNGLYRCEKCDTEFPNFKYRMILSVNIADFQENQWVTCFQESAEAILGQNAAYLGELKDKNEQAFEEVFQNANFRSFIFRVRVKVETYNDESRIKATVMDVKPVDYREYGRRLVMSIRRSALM
UniProt P78346: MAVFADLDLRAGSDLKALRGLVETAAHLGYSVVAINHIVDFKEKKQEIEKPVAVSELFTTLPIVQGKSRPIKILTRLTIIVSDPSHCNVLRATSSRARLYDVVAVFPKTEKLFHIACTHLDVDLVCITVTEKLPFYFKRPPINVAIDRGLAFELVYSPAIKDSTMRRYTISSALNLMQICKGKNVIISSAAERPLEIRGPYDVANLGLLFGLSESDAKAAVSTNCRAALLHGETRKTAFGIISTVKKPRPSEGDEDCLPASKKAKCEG
UniProt Q9H4A4: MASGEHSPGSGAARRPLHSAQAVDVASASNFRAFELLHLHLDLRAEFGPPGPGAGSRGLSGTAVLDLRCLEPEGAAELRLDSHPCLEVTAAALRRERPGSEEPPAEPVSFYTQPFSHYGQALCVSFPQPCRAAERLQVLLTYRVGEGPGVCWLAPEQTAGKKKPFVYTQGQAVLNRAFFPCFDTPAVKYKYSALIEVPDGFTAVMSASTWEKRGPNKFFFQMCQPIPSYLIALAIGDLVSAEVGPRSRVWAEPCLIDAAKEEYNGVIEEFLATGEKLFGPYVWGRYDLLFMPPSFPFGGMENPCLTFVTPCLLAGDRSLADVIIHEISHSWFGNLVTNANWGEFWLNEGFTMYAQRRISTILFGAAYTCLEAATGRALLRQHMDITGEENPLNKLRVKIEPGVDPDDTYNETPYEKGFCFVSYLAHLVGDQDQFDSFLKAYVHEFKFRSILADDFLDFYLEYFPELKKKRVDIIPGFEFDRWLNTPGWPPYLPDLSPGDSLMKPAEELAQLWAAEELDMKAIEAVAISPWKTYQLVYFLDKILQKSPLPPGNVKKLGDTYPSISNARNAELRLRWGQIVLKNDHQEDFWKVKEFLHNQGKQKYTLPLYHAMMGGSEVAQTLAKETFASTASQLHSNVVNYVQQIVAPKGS
UniProt P23443: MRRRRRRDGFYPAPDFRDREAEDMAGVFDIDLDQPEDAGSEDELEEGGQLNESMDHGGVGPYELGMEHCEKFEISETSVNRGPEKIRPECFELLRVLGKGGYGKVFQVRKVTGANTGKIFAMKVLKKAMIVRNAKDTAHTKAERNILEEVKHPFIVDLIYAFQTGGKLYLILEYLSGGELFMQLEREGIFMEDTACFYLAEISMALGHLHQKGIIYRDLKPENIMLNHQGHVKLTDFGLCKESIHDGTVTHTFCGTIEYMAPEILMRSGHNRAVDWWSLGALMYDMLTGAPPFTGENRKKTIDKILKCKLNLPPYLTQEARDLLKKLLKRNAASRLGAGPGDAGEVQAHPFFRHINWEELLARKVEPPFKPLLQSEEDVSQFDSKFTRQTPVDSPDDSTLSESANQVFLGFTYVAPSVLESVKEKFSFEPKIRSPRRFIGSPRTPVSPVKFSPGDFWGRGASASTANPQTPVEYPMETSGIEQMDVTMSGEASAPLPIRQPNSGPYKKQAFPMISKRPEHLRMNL
UniProt P10155: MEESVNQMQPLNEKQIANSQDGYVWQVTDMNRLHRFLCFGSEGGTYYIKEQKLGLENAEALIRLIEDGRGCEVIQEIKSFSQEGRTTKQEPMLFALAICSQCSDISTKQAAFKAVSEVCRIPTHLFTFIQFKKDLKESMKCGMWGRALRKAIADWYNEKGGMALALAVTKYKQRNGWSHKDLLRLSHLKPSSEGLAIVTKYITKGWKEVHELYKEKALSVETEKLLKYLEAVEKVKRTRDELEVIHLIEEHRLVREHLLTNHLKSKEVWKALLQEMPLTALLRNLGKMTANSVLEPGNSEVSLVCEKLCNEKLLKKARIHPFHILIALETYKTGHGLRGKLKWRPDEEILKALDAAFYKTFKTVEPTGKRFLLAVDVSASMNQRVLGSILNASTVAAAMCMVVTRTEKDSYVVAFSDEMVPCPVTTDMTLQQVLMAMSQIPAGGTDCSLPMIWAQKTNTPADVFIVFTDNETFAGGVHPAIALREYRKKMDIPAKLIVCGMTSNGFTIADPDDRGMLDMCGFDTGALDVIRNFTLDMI
UniProt Q15349, whole entry, looked up: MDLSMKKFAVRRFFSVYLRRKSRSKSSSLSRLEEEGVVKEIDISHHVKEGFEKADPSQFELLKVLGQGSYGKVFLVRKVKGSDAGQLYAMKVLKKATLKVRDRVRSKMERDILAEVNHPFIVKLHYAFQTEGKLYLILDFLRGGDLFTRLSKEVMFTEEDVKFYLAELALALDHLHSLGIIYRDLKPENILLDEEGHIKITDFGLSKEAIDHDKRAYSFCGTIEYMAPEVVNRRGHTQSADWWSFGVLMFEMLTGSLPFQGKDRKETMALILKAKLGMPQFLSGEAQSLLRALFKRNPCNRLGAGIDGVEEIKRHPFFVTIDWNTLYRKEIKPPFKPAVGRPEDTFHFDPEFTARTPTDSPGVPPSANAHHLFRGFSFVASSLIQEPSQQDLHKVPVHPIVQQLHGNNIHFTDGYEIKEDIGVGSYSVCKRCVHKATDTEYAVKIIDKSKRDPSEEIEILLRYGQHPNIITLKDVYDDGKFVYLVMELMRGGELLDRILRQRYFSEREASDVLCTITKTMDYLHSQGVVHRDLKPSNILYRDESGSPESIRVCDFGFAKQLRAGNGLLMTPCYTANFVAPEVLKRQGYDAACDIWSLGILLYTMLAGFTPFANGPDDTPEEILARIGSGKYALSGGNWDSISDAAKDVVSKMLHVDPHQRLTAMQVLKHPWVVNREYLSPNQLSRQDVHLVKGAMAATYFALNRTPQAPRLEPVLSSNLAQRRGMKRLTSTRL
UniProt Q96S38: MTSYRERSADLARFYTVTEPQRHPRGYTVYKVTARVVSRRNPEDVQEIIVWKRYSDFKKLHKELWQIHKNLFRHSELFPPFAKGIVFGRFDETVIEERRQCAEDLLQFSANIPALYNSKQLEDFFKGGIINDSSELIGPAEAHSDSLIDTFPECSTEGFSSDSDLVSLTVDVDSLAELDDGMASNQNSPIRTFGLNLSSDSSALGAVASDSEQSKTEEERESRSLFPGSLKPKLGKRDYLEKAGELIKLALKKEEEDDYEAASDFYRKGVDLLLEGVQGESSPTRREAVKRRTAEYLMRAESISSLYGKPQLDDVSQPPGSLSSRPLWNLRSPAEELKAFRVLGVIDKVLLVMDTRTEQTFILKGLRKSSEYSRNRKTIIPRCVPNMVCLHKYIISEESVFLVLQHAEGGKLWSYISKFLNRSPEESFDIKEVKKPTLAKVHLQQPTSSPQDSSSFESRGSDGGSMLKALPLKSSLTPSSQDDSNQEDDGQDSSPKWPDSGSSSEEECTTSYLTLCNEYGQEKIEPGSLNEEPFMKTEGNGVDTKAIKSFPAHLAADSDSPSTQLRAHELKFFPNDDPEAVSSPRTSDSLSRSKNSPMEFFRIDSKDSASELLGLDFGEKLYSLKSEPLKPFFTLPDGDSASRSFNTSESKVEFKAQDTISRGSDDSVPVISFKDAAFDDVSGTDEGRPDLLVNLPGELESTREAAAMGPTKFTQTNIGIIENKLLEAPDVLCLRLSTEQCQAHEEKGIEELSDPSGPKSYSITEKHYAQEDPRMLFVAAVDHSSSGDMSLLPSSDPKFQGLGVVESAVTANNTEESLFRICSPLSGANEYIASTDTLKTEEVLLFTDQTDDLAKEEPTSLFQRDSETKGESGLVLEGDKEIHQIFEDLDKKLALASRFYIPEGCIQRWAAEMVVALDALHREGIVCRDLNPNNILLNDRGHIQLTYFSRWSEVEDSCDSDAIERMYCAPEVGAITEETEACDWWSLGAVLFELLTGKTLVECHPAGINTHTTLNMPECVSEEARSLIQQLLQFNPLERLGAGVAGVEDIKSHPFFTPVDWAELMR
UniProt O43148, whole entry, looked up: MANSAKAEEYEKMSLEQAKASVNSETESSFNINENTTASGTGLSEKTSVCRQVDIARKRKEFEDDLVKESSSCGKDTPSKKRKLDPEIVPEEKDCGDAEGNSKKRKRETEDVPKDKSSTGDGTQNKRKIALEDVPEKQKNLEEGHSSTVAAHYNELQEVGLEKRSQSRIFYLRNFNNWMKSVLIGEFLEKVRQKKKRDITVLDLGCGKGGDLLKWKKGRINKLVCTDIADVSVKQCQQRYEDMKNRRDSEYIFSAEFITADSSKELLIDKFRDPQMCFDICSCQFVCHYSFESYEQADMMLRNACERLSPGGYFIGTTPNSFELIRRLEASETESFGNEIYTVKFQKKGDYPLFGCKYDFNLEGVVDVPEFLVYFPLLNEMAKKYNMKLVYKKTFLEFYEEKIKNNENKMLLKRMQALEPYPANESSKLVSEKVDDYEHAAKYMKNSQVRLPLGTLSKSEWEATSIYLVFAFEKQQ

Each target was assayed with C1CCN(C1)C(=O)NC2=CC=CC(=C2)NC3=NC=C(C(=N3)NCCC4=CN=CN4)Br (assay: log2 fold change, soluble protein after heating vs DMSO (PISA); higher = thermal stabilisation; K562 cells, 10 uM, 30 min; active = over 0.2 and 3.5 SD of the protein, either way, in both replicates (recomputed)).
Summary of the method: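 Soluble protein was defined as the supernatant after 21,000xg for 90 min. It came from K562 cells at 2×10^6 cells/mL given 10 μM compound for 30 min, heated in aliquots for 3 min across 48°C-58°C, pooled, and extracted in PBS with 0.5% NP-40 at 4°C, and was quantified by TMTpro 16plex LC-MS/MS with equalised channel sums. Thermal stability against control samples, from duplicates, is reported as log2 fold change.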

log2 fold change, inactive:
RPLP2 (UniProt P05387) -0.015
RPP38 (UniProt P78345) 0.029
RPL29 (UniProt P47914) -0.008
RPL36 (UniProt Q9Y3U8) -0.008
RPS18 (UniProt P62269) 0.097
RPS3 (UniProt P23396) 0.093
RPL3L (UniProt Q92901) 0.042
RPTOR (UniProt Q8N122) -0.042
RPL10 (UniProt P27635) 0.038
RNH1 (UniProt P13489) -0.013
RPA1 (UniProt P27694) -0.013
RPP30 isoform 2 (UniProt P78346) 0.121
RPS6KA1 isoform 2 (UniProt Q15418) -0.093
RNPEP (UniProt Q9H4A4) -0.004
RPS6KB1 (UniProt P23443) -0.014
RPL18A (UniProt Q02543) 0.128
RO60 (UniProt P10155) 0.021
RPS3A (UniProt P61247) 0.088
RPS6KA2 isoform 2 (UniProt Q15349) -0.058
RPL28 (UniProt P46779) 0.069
RPS12 (UniProt P25398) 0.027
RPS6KC1 (UniProt Q96S38) -0.206
RNMT isoform 2 (UniProt O43148) 0.026

Reprinted at random: two entries already listed, in no set order.
log2 fold change, inactive:
RPS6KA1 isoform 2 (UniProt Q15418) -0.093
RPL10 (UniProt P27635) 0.038
